# Reference: patent US12617757B2, “Compounds and modules for inhibition of pre-miR-21 and their use in treatment of certain cancers” (University of Florida Research Foundation, Incorporated, priority 2019, dated 2026)
# Test system: miRNAs in MDA-MB-231
# Assay: RT-qPCR miRNA profiling in MDA-MB-231 cells, Gini coefficient
# Type: cell-based, human
# Conditions: 1 10 μM, 2 1 μM, 5 0.05 μM
Compound,"Gini coefficient (GC), all miRNAs measured","Gini coefficient (GC), miRNA isoforms with the same A and U bulge as miR-21"
CCCN(CC(=O)N(CCC)CC(=O)N(CCC)CC(=O)N(CC(=O)NCCOCCOCCOCCOc1ccc(C=C2SC(Nc3ccccc3)=C(C(=O)OCC)C2=O)cc1O)Cc1cn(CCCNC(=O)CCCOc2ccc(-c3nc4cc(-c5ccc(N6CCN(C)CC6)cc5)ccc4[nH]3)cc2)nn1)C(=O)CN(Cc1cn(CCCNC(=O)CCCOc2ccc(-c3nc4cc(-c5ccc(N6CCN(C)CC6)cc5)ccc4[nH]3)cc2)nn1)C(C)=O [Compound 5],0.84,0.78
CN1CCN(c2ccc(-c3ccc4[nH]c(-c5ccc(OCCCC(=O)NCCCN=[N+]=[N-])cc5)nc4c3)cc2)CC1 [Compound 1],0.52,0.31
CCCN(CC(=O)N(CCC)CC(=O)N(CCC)CC(=O)N(CC(N)=O)Cc1cn(CCCNC(=O)CCCOc2ccc(-c3nc4cc(-c5ccc(N6CCN(C)CC6)cc5)ccc4[nH]3)cc2)nn1)C(=O)CNCc1cn(CCCNC(=O)CCCOc2ccc(-c3nc4cc(-c5ccc(N6CCN(C)CC6)cc5)ccc4[nH]3)cc2)nn1 [Compound 2],0.68,0.65
